Test results from PMC7652866.
Results are given in words; binding and its absence hold for the method and conditions named. In cells and extracts the contact can be indirect. A result given as binding can be weak or reduced; the word gives no strength.

Amino acid sequences for entries named in this document (tags omitted). A change or cut given only in a name is not applied to a line headed by its entry.
UniProt P23258: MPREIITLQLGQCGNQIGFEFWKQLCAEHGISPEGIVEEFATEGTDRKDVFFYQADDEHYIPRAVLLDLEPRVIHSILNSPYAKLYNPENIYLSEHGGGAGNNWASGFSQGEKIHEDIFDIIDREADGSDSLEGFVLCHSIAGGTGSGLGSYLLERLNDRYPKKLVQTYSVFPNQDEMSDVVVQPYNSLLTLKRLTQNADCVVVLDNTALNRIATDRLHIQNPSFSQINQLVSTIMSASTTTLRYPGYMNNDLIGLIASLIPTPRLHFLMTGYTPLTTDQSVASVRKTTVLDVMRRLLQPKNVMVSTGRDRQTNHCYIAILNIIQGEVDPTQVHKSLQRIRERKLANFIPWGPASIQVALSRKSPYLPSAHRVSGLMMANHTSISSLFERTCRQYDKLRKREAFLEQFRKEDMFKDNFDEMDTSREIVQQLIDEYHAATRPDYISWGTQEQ

Molecular target: γ-tubulin (human (endogenous in MRC5)) (UniProt P23258)
Assay: proximity ligation; Duolink PLA Fluorescent Detection (red), anti-mouse PLUS and anti-rabbit MINUS probes, on fixed MRC5, FADS 1 and FADS 2 fibroblasts; rabbit anti-rapsyn, rabbit or mouse anti-γ-tubulin, mouse anti-NUP88; foci mean a distance of at most 40 nm; foci per cell counted

Row | Binder | binding
1 | rapsyn (receptor-associated protein of the synapse) (protein, UniProt Q13702-1 1-412) MGQDQTKQQIEKGLQLYQSNQTEKALQVWTKVLEKSSDLMGRFRVLGCLVTAHSEMGRYKEMLKFAVVQIDTARELEDADFLLESYLNLARSNEKLCEFHKTISYCKTCLGLPGTRAGAQLGGQVSLSMGNAFLGLSVFQKALESFEKALRYAHNNDDAMLECRVCCSLGSFYAQVKDYEKALFFPCKAAELVNNYGKGWSLKYRAMSQYHMAVAYRLLGRLGSAMECCEESMKIALQHGDRPLQALCLLCFADIHRSRGDLETAFPRYDSAMSIMTEIGNRLGQVQALLGVAKCWVARKALDKALDAIERAQDLAEEVGNKLSQLKLHCLSESIYRSKGLQRELRAHVVRFHECVEETELYCGLCGESIGEKNSRLQALPCSHIFHLRCLQNNGTRSCPNCRRSSMKPGFV | binds
2 | rapsyn E162K mutant protein (protein, UniProt Q13702-1 1-412) MGQDQTKQQIEKGLQLYQSNQTEKALQVWTKVLEKSSDLMGRFRVLGCLVTAHSEMGRYKEMLKFAVVQIDTARELEDADFLLESYLNLARSNEKLCEFHKTISYCKTCLGLPGTRAGAQLGGQVSLSMGNAFLGLSVFQKALESFEKALRYAHNNDDAMLKCRVCCSLGSFYAQVKDYEKALFFPCKAAELVNNYGKGWSLKYRAMSQYHMAVAYRLLGRLGSAMECCEESMKIALQHGDRPLQALCLLCFADIHRSRGDLETAFPRYDSAMSIMTEIGNRLGQVQALLGVAKCWVARKALDKALDAIERAQDLAEEVGNKLSQLKLHCLSESIYRSKGLQRELRAHVVRFHECVEETELYCGLCGESIGEKNSRLQALPCSHIFHLRCLQNNGTRSCPNCRRSSMKPGFV | binds
